From article PMC7196917
Results are given in words; binding and its absence hold for the method and conditions named. Binding seen in cells or lysates may run through a third protein. Some binding calls cover weakened binding; strength is not graded here.

The chains behind the UniProt entries cited, without tags or fusion partners.
UniProt O70546: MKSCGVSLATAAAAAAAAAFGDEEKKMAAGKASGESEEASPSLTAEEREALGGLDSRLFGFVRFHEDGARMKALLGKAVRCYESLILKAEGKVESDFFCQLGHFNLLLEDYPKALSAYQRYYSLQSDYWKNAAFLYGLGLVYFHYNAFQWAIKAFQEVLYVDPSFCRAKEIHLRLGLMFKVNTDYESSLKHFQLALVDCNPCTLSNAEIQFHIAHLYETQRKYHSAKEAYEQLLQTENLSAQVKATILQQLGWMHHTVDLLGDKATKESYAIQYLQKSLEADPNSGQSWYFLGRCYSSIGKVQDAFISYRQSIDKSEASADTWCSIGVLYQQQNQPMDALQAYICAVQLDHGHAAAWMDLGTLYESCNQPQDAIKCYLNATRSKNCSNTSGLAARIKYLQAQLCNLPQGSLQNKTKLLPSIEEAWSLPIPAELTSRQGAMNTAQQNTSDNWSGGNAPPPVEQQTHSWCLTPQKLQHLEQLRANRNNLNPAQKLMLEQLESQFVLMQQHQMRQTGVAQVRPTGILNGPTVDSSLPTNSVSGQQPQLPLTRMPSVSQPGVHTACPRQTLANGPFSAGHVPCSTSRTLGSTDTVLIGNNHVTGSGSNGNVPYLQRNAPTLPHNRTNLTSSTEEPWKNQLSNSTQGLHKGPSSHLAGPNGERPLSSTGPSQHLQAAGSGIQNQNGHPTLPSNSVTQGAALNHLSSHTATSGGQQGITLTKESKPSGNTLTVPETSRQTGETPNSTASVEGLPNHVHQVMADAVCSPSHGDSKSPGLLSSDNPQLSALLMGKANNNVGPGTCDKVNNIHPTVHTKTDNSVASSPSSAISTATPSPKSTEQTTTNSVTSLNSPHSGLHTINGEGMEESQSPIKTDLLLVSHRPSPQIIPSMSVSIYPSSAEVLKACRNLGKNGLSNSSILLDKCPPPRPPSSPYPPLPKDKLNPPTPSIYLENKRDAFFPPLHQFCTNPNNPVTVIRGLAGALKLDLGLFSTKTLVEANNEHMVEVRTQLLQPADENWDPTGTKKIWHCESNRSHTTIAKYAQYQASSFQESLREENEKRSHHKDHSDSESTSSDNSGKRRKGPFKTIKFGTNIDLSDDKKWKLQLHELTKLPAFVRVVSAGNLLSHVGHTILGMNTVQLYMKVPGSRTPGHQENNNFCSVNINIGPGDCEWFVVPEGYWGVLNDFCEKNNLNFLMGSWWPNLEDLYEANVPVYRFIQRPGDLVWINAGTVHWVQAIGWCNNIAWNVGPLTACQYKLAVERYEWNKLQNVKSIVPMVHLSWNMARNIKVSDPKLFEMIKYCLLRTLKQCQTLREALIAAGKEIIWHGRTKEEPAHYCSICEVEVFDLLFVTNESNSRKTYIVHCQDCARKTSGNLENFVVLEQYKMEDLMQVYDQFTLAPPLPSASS
UniProt P22361: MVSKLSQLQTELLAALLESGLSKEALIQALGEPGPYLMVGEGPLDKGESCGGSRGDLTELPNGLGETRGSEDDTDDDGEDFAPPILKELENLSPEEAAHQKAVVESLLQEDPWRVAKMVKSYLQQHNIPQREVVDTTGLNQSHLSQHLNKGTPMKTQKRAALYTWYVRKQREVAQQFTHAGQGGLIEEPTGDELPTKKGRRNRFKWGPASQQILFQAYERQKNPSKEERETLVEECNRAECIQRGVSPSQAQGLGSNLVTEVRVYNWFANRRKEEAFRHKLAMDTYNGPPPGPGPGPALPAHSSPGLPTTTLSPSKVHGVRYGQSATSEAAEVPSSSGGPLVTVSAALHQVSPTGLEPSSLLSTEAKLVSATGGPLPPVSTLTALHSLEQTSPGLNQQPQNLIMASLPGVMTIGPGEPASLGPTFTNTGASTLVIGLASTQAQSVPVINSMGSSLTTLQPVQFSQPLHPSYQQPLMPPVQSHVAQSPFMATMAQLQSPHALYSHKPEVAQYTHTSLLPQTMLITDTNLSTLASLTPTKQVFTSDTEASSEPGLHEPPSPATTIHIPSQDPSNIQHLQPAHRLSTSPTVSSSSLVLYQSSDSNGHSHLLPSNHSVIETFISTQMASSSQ

Biological target: Lysine-specific demethylase 6A (KDM6A) (mouse (endogenous in 266-6)) (UniProt O70546)
Assay: co-IP; endogenous proteins; nuclear extract of 266-6 mouse acinar cells equilibrated to 150 mM NaCl, 4 mg extract incubated overnight with 2 ug anti-KDM6A, anti-HNF1A or normal rabbit IgG, Dynabeads Protein G, washes with 10 mM Tris-HCl pH 8, 150 mM NaCl, 0.1% NP-40, 1 mM EDTA; Western blot

binding: binds
Substance: HNF1A (from UniProt P22361 1-628)
